Laboratory results: PubChem BioAssay AID1671195 (Yale University, 2021)
Aim: 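Regulators of LDL receptor activity judged by labelled LDL uptake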 (primary screen). Cells: human Huh7 hepatoma cells. Reagent: siRNA pool against human genes, 18 nM. Time to read-out: about 2 to 2.5 days of knockdown, then 8 h LDL uptake. Treatment: DiI-labelled LDL at 30 µg/ml for 8 h, in lipoprotein-deficient serum medium. Detection: 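Per-cell DiI-LDL intensity by automated imaging; well means scaled to the plate median and given as a robust z-score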. Direction: robust z-score: higher = more LDL uptake after knockdown. Call rule: 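a gene counts as active if at least two replicate z-scores exceed ±2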.
The whole screen tested about 22,000 reagents; below is an unselected part. In the full data, about 1,510 (6.9%) got an active call. 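Active includes knockdowns raising or lowering LDL uptake; positive z-scores mean more uptake, negative mean less.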 A number with no mark means an inactive call.

| Gene | robust z-score, replicate 1 | robust z-score, replicate 2 | robust z-score, replicate 3 |
| --- | --- | --- | --- |
| ATP6V1F (ATPase H+ transporting V1 subunit F) | -1.19 | -0.802 | -1.19 |
| CABLES1 (Cdk5 and Abl enzyme substrate 1) | 1.01 | -0.621 | 0.449 |
| CISD1P1 (CDGSH iron sulfur domain 1 pseudogene 1) | -0.387 | -0.341 | -1.61 |
| TMCO2 (transmembrane and coiled-coil domains 2) | 0.837 | -0.843 | -0.507 |
| TTLL3 (tubulin tyrosine ligase like 3) | -0.782 | 1.11 | 1.38 |
| LOC440723 (retired record) | 1.31 | 2.37 | 1.84 |
| OOSP1 (oocyte secreted protein 1) | 0.223 | 0.439 | 0.311 |
| TRIM65 (tripartite motif containing 65) | -0.643 | 0.0467 | 0.349 |
| RACGAP1 (Rac GTPase activating protein 1) | 0.87 | 0.895 | 0.714 |
| LOC139046 (retired record) | 0.19 | -0.576 | -1.57 |
| LUZP1 (leucine zipper protein 1) | -0.58 | 0.11 | -0.199 |
| TRHDE-AS1 (TRHDE antisense RNA 1) | 0.0738 | 0.204 | 0.303 |
| DRD4 (dopamine receptor D4) | -1.51 | -0.947 | -1.94 |
| ARHGAP35 (Rho GTPase activating protein 35) | -0.564 | -0.627 | -0.879 |
| ENDOG (endonuclease G) | -0.843 | -0.678 | -0.834 |
| SMAD9 (SMAD family member 9) | 1.91 (active) | 4.39 | 2.58 |
| KCTD12 (potassium channel tetramerization domain containing 12) | 2.27 (active) | 2.06 | 2.1 |
| NUDT2 (nudix hydrolase 2) | -0.993 | -0.628 | -0.68 |
| LOC440958 (retired record) | -0.0434 | -0.667 | -0.4 |
| SNX25 (sorting nexin 25) | -0.0457 | -0.395 | 0.0129 |
| LOC102725228 | 4.08 (active) | 3.22 | 3.54 |
| ADSS1 (adenylosuccinate synthase 1) | -0.0286 | -0.62 | 0.0437 |
| LARGE1 (LARGE xylosyl- and glucuronyltransferase 1) | 0.43 | 0.0787 | -0.0354 |
| PLTP (phospholipid transfer protein) | -0.102 | 0.828 | 1.2 |
| CAPNS1P1 (calpain small subunit 1 pseudogene 1) | -0.37 | -0.636 | -0.374 |
| RTL6 (retrotransposon Gag like 6) | 3.92 (active) | 2.23 | 2.38 |
| DSCR9 (Down syndrome critical region 9) | 0.992 | 1.38 | 1.23 |
| THAP1 (THAP domain containing 1) | 1.83 (active) | 2.29 | 2.38 |
| SPRR2A (small proline rich protein 2A) | -0.626 | 1.75 | 0.135 |
| LOC440967 (retired record) | -0.859 | -0.47 | -0.39 |
| LRIT2 (leucine rich repeat, Ig-like and transmembrane domains 2) | -1.45 | -1.47 | -1.47 |
| RGMB (repulsive guidance molecule BMP co-receptor b) | -0.497 | -0.412 | -0.051 |
| CDNF (cerebral dopamine neurotrophic factor) | 0.796 | 0.544 | 0.462 |
| GPIHBP1 | -0.943 | -0.814 | -0.818 |
| POTEA (POTE ankyrin domain family member A (gene/pseudogene)) | -0.708 | -0.86 | -0.735 |
| ENTPD2 (ectonucleoside triphosphate diphosphohydrolase 2) | -1.68 | -1.62 | -2.12 |
| TMEM74 (transmembrane protein 74) | -0.126 | -0.791 | 0.016 |
| CDX4 (caudal type homeobox 4) | -1.41 | -1.06 | -0.378 |
| EXOSC6 (exosome component 6) | 2.94 (active) | 4.52 | 2.96 |
| CD40LG (CD40 ligand) | 0.403 | 0.00249 | 0.945 |
| TPMT (thiopurine S-methyltransferase) | -1.58 | -1.94 | -1.7 |
| AP1M1 (adaptor related protein complex 1 subunit mu 1) | 0.912 | 1.77 | 1.54 |
| RALGPS2 (Ral GEF with PH domain and SH3 binding motif 2) | 2.07 | 1.63 | 1.76 |
| GP6 (glycoprotein VI platelet) | -0.275 | 0.277 | -0.00598 |
| KALRN (kalirin RhoGEF kinase) | 0.0972 | 1.53 | 0.639 |
| GABBR1 (gamma-aminobutyric acid type B receptor subunit 1) | -0.161 | -0.809 | -0.836 |
| SPIC (Spi-C transcription factor) | 2.19 (active) | 2.59 | 0.86 |
| TOX3 (TOX high mobility group box family member 3) | -0.472 | -1.33 | -0.794 |
| UQCRQ (ubiquinol-cytochrome c reductase complex III subunit VII) | 0.733 | -1.13 | 0.941 |
| WBP1 (WW domain binding protein 1) | -0.465 | -0.681 | -0.0273 |
| INHA (inhibin subunit alpha) | -0.0371 | -0.949 | -1.16 |
| CAMSAP1 (calmodulin regulated spectrin associated protein 1) | -0.146 | 1.19 | -0.33 |
| CRYGS (crystallin gamma S) | -0.277 | 0.502 | 0.569 |
| ARHGEF15 (Rho guanine nucleotide exchange factor 15) | -0.136 | -0.275 | -0.384 |
| LOC389905 (retired record) | 0.782 | 0.732 | 0.215 |
| ADH6 (alcohol dehydrogenase 6 (class V)) | 0.55 | 0.359 | 0.22 |
| AADACL2 (arylacetamide deacetylase like 2) | -0.555 | -0.366 | -0.457 |
| FNIP1 (folliculin interacting protein 1) | -0.032 | 1.05 | 1.11 |
| ZNF589 (zinc finger protein 589) | -0.748 | 0.651 | 0.58 |
| STK10 (serine/threonine kinase 10) | 1.79 | 2.03 | 1.66 |
| TRAF2 (TNF receptor associated factor 2) | 0.786 | -0.314 | 0.477 |
| GRSF1 (G-rich RNA sequence binding factor 1) | 0.462 | 0.994 | 0.72 |
| LOC402145 (retired record) | 1.42 | -0.587 | 0.402 |
| FOXH1 (forkhead box H1) | -0.515 | -0.822 | -0.401 |
| MDP1 (magnesium dependent phosphatase 1) | -0.306 | -0.512 | 0.283 |
| NBPF22P (NBPF member 22, pseudogene) | 0.223 | -0.329 | -0.118 |
| TRUB1 (TruB pseudouridine synthase family member 1) | 0.275 | 1.3 | 1.55 |
| LOC400161 (retired record) | -1.71 (active) | -2.05 | -2.17 |
| SOWAHD (sosondowah ankyrin repeat domain family member D) | -0.0539 | -0.21 | 0.155 |
| ABHD16B (abhydrolase domain containing 16B) | -0.0869 | 0.308 | -0.503 |
| GPR19 (G protein-coupled receptor 19) | -0.94 | -1.35 | -1.45 |
| CNRIP1 (cannabinoid receptor interacting protein 1) | 0.688 | 1.32 | 0.189 |
| SLCO1C1 | -0.841 | -1.18 | -1.24 |
| OSTN (osteocrin) | -0.0435 | -0.646 | -0.098 |
| LOC441529 (retired record) | 0.212 | -1.09 | -1.01 |
| LINC01587 (long independently transcribed non-coding RNA 1587) | 0.701 | 0.176 | 0.58 |
| SYT12 (synaptotagmin 12) | 1.96 (active) | 2.41 | 2.01 |
| ANKRD20A8P (ankyrin repeat domain 20 family member A8, pseudogene) | 0.155 | 0.0919 | 0.526 |
| TREX2 (three prime repair exonuclease 2) | -0.00382 | 0.406 | 0.69 |
| CCDC140 (CCDC140 long non-coding RNA) | 0.0242 | -0.279 | 0.101 |
| STARD7 (StAR related lipid transfer domain containing 7) | 0.704 | 0.397 | 2.11 |
| MAOA (monoamine oxidase A) | 0.548 | 0.545 | 0.45 |
| PDS5A (PDS5 cohesin associated factor A) | 2.73 | -0.37 | 1.48 |
| ARAP3 (ArfGAP with RhoGAP domain, ankyrin repeat and PH domain 3) | -1.65 | -1.76 | -2.05 |
| DYTN (dystrotelin) | -0.634 | -0.562 | -0.968 |
| DNAJB7 (DnaJ heat shock protein family (Hsp40) member B7) | 1.48 | 1.3 | 0.979 |
| TMCO1 (transmembrane and coiled-coil domains 1) | -0.399 | -1.92 | -0.769 |

Part of the list above, set out differently.
Gene | robust z-score, replicate 1 | robust z-score, replicate 2 | robust z-score, replicate 3
MAOA (monoamine oxidase A) | 0.548 | 0.545 | 0.45
PDS5A (PDS5 cohesin associated factor A) | 2.73 | -0.37 | 1.48
ARAP3 (ArfGAP with RhoGAP domain, ankyrin repeat and PH domain 3) | -1.65 | -1.76 | -2.05
DYTN (dystrotelin) | -0.634 | -0.562 | -0.968
